# Measured values taken from the supplement of paper PMC3741180, “A Novel High Throughput Biochemical Assay to Evaluate the HuR Protein-RNA Complex Formation” (PLoS ONE, 2013).
# Chains of the proteins cited; added tags and fusions are not shown.
# UniProt Q15717, whole entry: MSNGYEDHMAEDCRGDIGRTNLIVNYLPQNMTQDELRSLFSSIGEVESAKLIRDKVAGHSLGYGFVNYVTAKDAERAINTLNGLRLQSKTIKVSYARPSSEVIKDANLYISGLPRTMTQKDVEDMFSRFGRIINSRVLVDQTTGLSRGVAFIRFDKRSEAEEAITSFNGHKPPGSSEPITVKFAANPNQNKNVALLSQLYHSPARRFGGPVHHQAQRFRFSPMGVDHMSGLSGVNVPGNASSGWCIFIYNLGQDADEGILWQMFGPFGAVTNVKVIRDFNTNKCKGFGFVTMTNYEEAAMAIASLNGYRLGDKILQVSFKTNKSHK
# Some of the results follow. This data set is noisy: repeats of one test often differ as much as different tests do.
# Biological target: HuR (ELAVL1) - TNFalpha ARE RNA complex (UniProt Q15717)
# Assay: AlphaScreen HuR-RNA complex signal Z-score relative to positive (Bi-TNF, DMSO) controls (Z-score (SD units of positive control)); higher = more complex signal
# Conditions: screen stage: primary screen; compound concentration: 25 nM
row,Compound,AlphaScreen HuR-RNA complex signal Z-score
1,COc1c(-c2coc3cc4c(cc3c2=O)CC(O)C(C)(C)O4)ccc2c1C=CC(C)(C)O2 (stereo not given),2.38
2,Cc1cn[nH]c1,0.501
3,NCCc1c[nH]cn1,1.79
4,OC(Cn1cncn1)(Cn1cncn1)c1ccc(F)cc1F,2.32
5,Nc1[nH]cnc2ncnc1-2,-0.0308
6,CC(=O)[C@@]1(O)CC[C@H]2[C@@H]3C=C(Cl)C4=CC(=O)[C@@H]5C[C@@H]5[C@]4(C)[C@H]3CC[C@@]21C,1.93
7,NS(=O)(=O)c1cc(C2(O)NC(=O)c3ccccc32)ccc1Cl (stereo not given),-3.14
8,CCCCCCCCCCCCCCCC(=O)OC/C=C(C)/C=C/C=C(C)/C=C/C1=C(C)CCCC1(C)C,0.15
9,Cc1ncc(C[n+]2csc(CCO)c2C)c(N)n1,2.25
10,CC(C)c1c(C(=O)Nc2ccccc2)c(-c2ccccc2)c(-c2ccc(F)cc2)n1CC[C@@H](O)C[C@@H](O)CC(=O)O,0.549
11,CC(=O)OCC(=O)[C@@]1(O)CC[C@H]2[C@@H]3CCC4=CC(=O)CC[C@]4(C)[C@H]3[C@@H](O)C[C@@]21C,-2
12,CC(=O)OCC(=O)[C@@]1(O)CC[C@H]2[C@@H]3CCC4=CC(=O)C=C[C@]4(C)[C@@]3(Cl)[C@@H](Cl)C[C@@]21C,0.148
13,O=C(O)CN1C(=O)c2cccc3cccc(c23)C1=O,0.0638
14,FC(F)(F)C(Cl)Br (stereo not given),2.96
15,CCCCN(CCCC)CCCOC(=O)c1ccc(N)cc1,0.87
16,CC(=O)O[C@@H]1C[C@H]2C(C)(C)[C@@H](O)CC[C@]2(C)[C@H]2CC[C@@]3(C)[C@H](c4ccoc4)OC(=O)[C@H]4O[C@]43[C@@]21C [beta-DIHYDROGEDUNOL],1.36
17,Cc1ccc(C(=O)c2ccc(CC(=O)O)n2C)cc1,-1.01
18,CC(=O)OCC(=O)[C@@]1(O)CC[C@H]2[C@@H]3CCC4=CC(=O)CC[C@]4(C)[C@@]3(F)[C@@H](O)C[C@@]21C,-0.156
19,CC(=O)O[C@@H]1C[C@H]2C(C)(C)C(=O)CC[C@]2(C)[C@H]2CC[C@@]3(C)[C@H](c4ccoc4)OC(=O)[C@H]4O[C@]43[C@@]21C,0.705
20,O=C(O)CCCCCCCC(=O)O,1.18

row,Compound,AlphaScreen HuR-RNA complex signal Z-score
1,CC12CCC3C(CC3(C)C)C(C)(CCC1=O)O2 (stereo not given),1.97
2,C=C1CC[C@H](O)C/C1=C/C=C1\CCC[C@]2(C)[C@@H]([C@H](C)CCCC(C)C)CC[C@@H]12,-0.298
3,NNCCc1ccccc1,-5.48
4,CC(=O)S[C@@H]1CC2=CC(=O)CC[C@]2(C)[C@H]2CC[C@@]3(C)[C@@H](CC[C@@]34CCC(=O)O4)[C@H]12,8.41
5,CCCc1cc(C(N)=S)ccn1,1.09
6,CC(Cc1cccc(C(F)(F)F)c1)NCCOC(=O)c1ccccc1 (stereo not given),1.89
7,COc1ccc2c(=O)c(OC)c(-c3ccccc3)oc2c1,0.408
8,CN1CCC(=C2c3ccccc3C=Cc3ccccc32)CC1,1.67
9,COc1ccc(-c2cc(=O)c3ccccc3o2)cc1,2.88
10,N=C(N)NC(=N)NCCc1ccccc1,2
11,CC(C)(CO)[C@@H](O)C(=O)NCCC(=O)NCCSSCCNC(=O)CCNC(=O)[C@H](O)C(C)(C)CO,0.969
12,CN1CCN(CC/C=C2/c3ccccc3Sc3ccc(S(=O)(=O)N(C)C)cc32)CC1,-5.35
13,CC[C@H](/C=C/[C@@H](C)[C@H]1CC[C@H]2[C@@H]3CC=C4C[C@@H](O)CC[C@]4(C)[C@H]3CC[C@]12C)C(C)C,1.32
14,CC(=O)OCC(=O)[C@@]1(O)[C@@H](C)C[C@H]2[C@@H]3CCC4=CC(=O)C=C[C@]4(C)[C@@]3(F)[C@@H](O)C[C@@]21C,2.76
15,CC(=O)Oc1ccc2c(c1OC(C)=O)OCC1(O)Cc3c(cc(OC(C)=O)c(OC(C)=O)c3OC(C)=O)C21 (stereo not given),1
16,COc1c2occc2cc2ccc(=O)oc12,1.38
17,N=C(NCCCCCCNC(=N)NC(=N)Nc1ccc(Cl)cc1)NC(=N)Nc1ccc(Cl)cc1,-3.7
18,COC(=O)c1cc(O)c(=O)c2c(O)c(O)ccc2c1,2.04
19,C[N+]1(C)CCC(OC(=O)C(O)(c2ccccc2)C2CCCC2)C1 (stereo not given),1.7
20,CCCCCCCCCCCCCCCCCCOCC(O)CO (stereo not given),1.61

# Taken from above, 2 compounds:
row,Compound,AlphaScreen HuR-RNA complex signal Z-score
16,COc1c2occc2cc2ccc(=O)oc12,1.38
17,N=C(NCCCCCCNC(=N)NC(=N)Nc1ccc(Cl)cc1)NC(=N)Nc1ccc(Cl)cc1,-3.7

# The listing continues.

row,Compound,AlphaScreen HuR-RNA complex signal Z-score
1,CCCCCc1c2c(cc(O)c1C(=O)O)OC(=O)c1c(cc(OC)cc1C(=O)CCCC)O2,0.421
2,COC1=C[C@@H](C)[C@@H]2C[C@H]3OC(=O)C[C@H]4C(C)=C(OC)C(=O)[C@H]([C@@]2(C)C1=O)[C@@]34C,1.5
3,COc1ccc([C@@H]2CC(=O)c3c(O)cc(O)cc3O2)cc1O,1.18
4,CN(C)CCCN1c2ccccc2Sc2ccc(C(F)(F)F)cc21,0.775
5,Oc1cc(O)c2c(c1)O[C@H](c1ccc(O)c(O)c1)[C@@H](O)C2,2.21
6,CCN(CC)CCOC(=O)C1(C2CCCCC2)CCCCC1,-2.52
7,O=c1cc(-c2ccccc2)oc2c(O)c(O)ccc12,1.9
8,O=C1c2c(O)cccc2Cc2cccc(O)c21,0.282
9,O=S(=O)(O)c1cc(N=C=S)ccc1/C=C/c1ccc(N=C=S)cc1S(=O)(=O)O,1.58
10,CCCCCCCCCCCCCCCC(=O)OCC(O)CO (stereo not given),1.46
11,CC[N+](C)(CC)CCOC(=O)C(O)(c1ccccc1)C1CCCCC1 (stereo not given),1.59
12,CC(C)NC[C@@H](O)COc1cccc2ccccc12,7.39
13,CCc1cn([C@H]2C[C@H](O)[C@@H](CO)O2)c(=O)[nH]c1=O,1.36
14,C[C@@H]1O[C@@H](O[C@H]2[C@H](Oc3cc(O)c4c(=O)cc(-c5ccc(O)cc5)oc4c3)O[C@H](CO)[C@@H](O)[C@@H]2O)[C@H](O)[C@H](O)[C@H]1O,2.28
15,Cc1c(N(C)CS(=O)(=O)O)c(=O)n(-c2ccccc2)n1C,0.182
16,CN(C)[C@@H]1C(O)=C(C(=O)NCN2CCCC2)C(=O)[C@@]2(O)C(O)=C3C(=O)c4c(O)cccc4[C@@](C)(O)[C@H]3C[C@@H]12,0.484
17,CC(NCCC(c1ccccc1)c1ccccc1)c1ccccc1 (stereo not given),1.01
18,COc1cc2c3cc1Oc1c(OC)c(OC)cc4c1[C@@H](Cc1ccc(O)c(c1)Oc1ccc(cc1)C[C@@H]3N(C)CC2)N(C)CC4,0.636
19,C[C@H](CCC(=O)O)[C@H]1CC[C@H]2[C@@H]3[C@H](O)C[C@@H]4C[C@H](O)CC[C@]4(C)[C@H]3CC[C@]12C,1.65
20,NNc1nncc2ccccc12,-1.81
